Reference: PubChem BioAssay AID2685 (National Center for Advancing Translational Sciences (NCATS), 2010)
The list shows a part of the results. Further columns of the screen follow, without active or inactive calls. Most of these compounds were active or inconclusive in the main read-out, so they are no random draw. Words in brackets tell the shape of the fitted curve; partial curves, single points and poor fits give uncertain potencies.

Experiment: qHTS Assay for Lipid Storage Modulators in Drosophila S3 Cells;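 on cell number change: cells counted by Cell Tracker Red CMTPX staining in the red channel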
Settings: BODIPY lipid droplet fluorescence, 18-24 h; for cell number change: measured here: cell count max response, cells fed with added oleic acid
Procedure, shortened: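 Drosophila S3 cells got compounds at several concentrations plus oleic acid (400 uM solution). Laser-scanning cytometry with 488 nm excitation read lipid droplets at 500-530 nm and cells at 575-640 nm. Percent activity was relative to 20 uM Triacsin C.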

[1] = measured here: lipid fluorescence (Fed channel) AC50, cells fed with added oleic acid
[2] = measured here: cell number channel AC50, cells fed with added oleic acid

SMILES | cell number change | AC50 [1] | AC50 [2]
CC(C)CCn1c(=O)c2c(nc3n2CCCN3Cc2ccccc2)n(C)c1=O | -5.63% | 29.1 µM [falling, single point] | 
COc1cc(CNn2cn[nH]c2=S)cc(Br)c1OCc1ccccc1F | 1.96% | 1.41 µM [rising, partial curve] | 
COc1ccc(CNC(=O)N2CCc3ccccc3C2)cc1 | 4.17% | 6.51 µM [rising, single point] | 
COc1cc(CN2CCN(Cc3ccc(C)cc3)CC2)c([N+](=O)[O-])cc1OC | 11.2% | 3.26 µM [rising, single point] | 
COCCNC(=O)c1cc(-c2ccc(-c3ccccc3)cc2)nc2ccccc12 | -10.3% | 25.9 µM [rising, single point] | 
CCOC(=O)/C=C/COc1ccccc1[N+](=O)[O-] | 27.7% |  | 3.26 µM [falling, single point]
O=S(=O)(Nc1nc2ccccc2nc1-[n+]1ccccc1)c1ccc(Cl)cc1 | 24.8% | 0.00517 µM [falling, full curve, poor fit] | 
COc1ccccc1-n1cnnc1SCC(=O)c1cc(C)n(Cc2cccs2)c1C | -16.1% | 0.116 µM [falling, single point] | 
COC(=O)c1sc(-c2ccccc2)cc1NC(C)=O | 45.7% |  | 29.1 µM [rising, single point]
COC(=O)c1c(-c2ccc(OC)cc2)sc2cc3c(cc12)OCO3 | -19.3% |  | 0.58 µM [falling, partial curve]
CCN1CCN(C(=S)Nc2ccc3nc4n(c(=O)c3c2)CCCCC4)CC1 | 28.3% | 2.59 µM [rising, full curve, poor fit] | 
Cc1ccc(S(=O)(=O)N2[C@@H](c3cccc(Cl)c3)C(C(=O)O)=CC[C@H]2c2ccc3c(c2)OCO3)cc1 | 31.9% | 11.6 µM [rising, single point] | 0.184 µM [rising, full curve, poor fit]
COc1ccccc1C(=O)NCC(=O)N=Nc1c(O)n(C(C)C)c2ccccc12 | -8.96% | 0.651 µM [falling, full curve, poor fit] | 
C=CCOC(=O)C1=C[C@H](C2CCCCC2)[C@@H](CCCO)[C@H](OCC)O1 | -34.7% | 29.1 µM [falling, single point] | 29.1 µM [falling, single point]
CSCCC(NC(N)=O)C(=O)Nc1cccc(C#N)c1 (configuration not stated) | 18.9% |  | 
CCCNC(=O)c1ccccc1SCc1c(C)noc1C | 21.1% |  | 
O=C(c1snnc1-c1ccccc1)N1CCOCC1 | 26.6% | 6.51 µM [rising, single point] | 
Cc1cc(NS(=O)(=O)c2ccc(NC(=O)Nc3cccc(C(F)(F)F)c3)cc2)no1 | -12.7% | 6.51 µM [rising, single point] | 
O=C(CN(CCc1ccccc1)C(=O)CN1C(=O)COc2ccccc21)NCc1ccco1 |  | 2.59 µM [rising, partial curve] | 
Fc1cccc(Cl)c1CSc1nnc(CN2CCOCC2)n1-c1ccccc1 | 4.07% | 32.6 µM [rising, single point] | 
Nc1nonc1-n1nnc(C(=O)N/N=C/c2ccccc2Cl)c1COc1ccc(F)cc1 |  | 0.092 µM [rising, full curve, poor fit] | 0.103 µM [rising, full curve]

Copied from the list.
cell number change, `Cc1cc(NS(=O)(=O)c2ccc(NC(=O)Nc3cccc(C(F)(F)F)c3)cc2)no1` is entered as -12.7%
AC50 [1], `O=C(CN(CCc1ccccc1)C(=O)CN1C(=O)COc2ccccc21)NCc1ccco1` is entered as 2.59 µM [rising, partial curve]

(list continues)

SMILES | cell number change | AC50 [1] | AC50 [2]
O=C(Nc1cccnc1)c1ccc(Cl)c(S(=O)(=O)N2CCc3ccccc32)c1 | 33.9% |  | 0.82 µM [rising, full curve, poor fit]
O=S(=O)(c1ccc(SCc2cccc(Cl)c2)nc1)N1CCCC1 | -5.57% | 0.0058 µM [falling, full curve, poor fit] | 
Nc1nc(Nc2ccccc2)n[nH]1 | 21.2% | 0.116 µM [falling, full curve, poor fit] | 
Cc1cc(C)c2cc(CN(CCO)C(=O)Nc3ccc(F)cc3)c(=O)[nH]c2c1 |  | 1.84 µM [rising, partial curve] | 1.84 µM [rising, partial curve]
COc1ccc(C(=O)OCC(=O)Nc2sccc2C(N)=O)cc1[N+](=O)[O-] | 18.9% | 1.3 µM [rising, full curve, poor fit] | 
COc1ccc(S(=O)(=O)N2CCCC2C(=O)Nc2ccc(O)cc2)cc1 (configuration not stated) | -71.6% |  | 29.1 µM [falling, single point]
CN1CCN(NC(=O)Nc2cc(Cl)cc(Cl)c2)CC1 |  | 4.11 µM [falling, full curve] | 
Cc1ccc(NC(=O)c2oc3ccc(S(=O)(=O)N4CCOCC4)cc3c2C)c(C)c1 | 3.02% |  | 
COc1cccc(-c2cc(C(=O)N3CCCc4ccccc43)no2)c1 |  | 23.1 µM [rising, single point] | 6.51 µM [rising, single point]
C[C@H]1CN=C(Nc2ccccc2)N1CCC1CCCC1 | 14.7% | 29.1 µM [falling, single point] | 
Cc1ccc(NC(=O)CSc2nnc(C3CC3)n2CC2CCCO2)cc1C (configuration not stated) | 17.9% | 25.9 µM [rising, partial curve, poor fit] | 
CN(CC(=O)Nc1c(Cl)cccc1Cl)C(=O)c1ccc(-n2cncn2)c([N+](=O)[O-])c1 | -14.1% | 6.51 µM [rising, single point] | 
CCCCc1ccc(N2C(=NC(=O)C3CCCO3)SC3CS(=O)(=O)CC32)cc1 (configuration not stated) | 50.5% |  | 1.84 µM [rising, partial curve, poor fit]
COc1ccc(C(=O)CSc2nnc(Cn3cnc4ccccc43)o2)cc1 | -35.6% | 23.1 µM [falling, partial curve, poor fit] | 13 µM [falling, partial curve]
O=C(CCn1nc(-c2ccccc2)c2ccccc2c1=O)N1CCN(c2ccccc2)CC1 | -14.1% | 0.259 µM [rising, full curve, poor fit] | 
CC1=CCC2C(=O)N(c3ccc(C)cc3)C(=O)C2C1 (configuration not stated) |  | 0.116 µM [rising, full curve, poor fit] | 
CCCCNC(=O)Nc1nc2ccccc2s1 | -12.6% |  | 
CCNc1nc(Cl)nc(NCCOc2ccc(C)cc2)n1 |  | 6.51 µM [falling, single point] | 6.51 µM [falling, single point]
Cc1cc(-c2nnc(-c3ccccc3)c(-c3ccccc3)n2)c(C)o1 | 8.63% | 0.116 µM [rising, single point] | 
CC(C)Cn1c(N)c(C(=O)COC(=O)c2ccc([N+](=O)[O-])o2)c(=O)n(C)c1=O | -45.1% |  | 32.6 µM [falling, partial curve, poor fit]
O=C(/C=C/Nc1ccccc1O)c1ccco1 | -1.17% | 0.13 µM [rising, full curve, poor fit] | 

Reprinted from above for reference:
SMILES | cell number change | AC50 [1] | AC50 [2]
COc1ccccc1C(=O)NCC(=O)N=Nc1c(O)n(C(C)C)c2ccccc12 | -8.96% | 0.651 µM [falling, full curve, poor fit] | 
C=CCOC(=O)C1=C[C@H](C2CCCCC2)[C@@H](CCCO)[C@H](OCC)O1 | -34.7% | 29.1 µM [falling, single point] | 29.1 µM [falling, single point]

Further records.

SMILES | cell number change | AC50 [1] | AC50 [2]
O=C(NCc1ccccc1)C1CCCN1C(=O)Nc1ccccc1[N+](=O)[O-] (configuration not stated) |  | 0.651 µM [falling, partial curve, poor fit] | 
COc1cc2c(cc1OC)CN(C(=O)CN(C)S(=O)(=O)c1ccc(NC(C)=O)cc1)CC2 | 2.63% |  | 
Cc1ccccc1-c1nc(CN2CCN(C(=O)c3ccco3)CC2)c(C)o1 |  | 2.24 µM [rising, partial curve] | 
Cc1ccc(NC(=O)c2c(-c3ccccc3Cl)noc2C)nc1 | 23.2% | 0.13 µM [rising, full curve] | 
COc1ccc(OCCOC(=O)CNC(=O)c2ccc(Cl)cc2Cl)cc1 | -21.9% | 0.651 µM [rising, full curve] | 
CCCN(CCC)c1nc(-c2ccccn2)nc2ccccc12 | -41.5% | 10.3 µM [falling, single point] | 
O=C(NC1CCCCC1)N1CCN(c2ccc([N+](=O)[O-])cc2)CC1 | -28.7% | 29.1 µM [falling, single point] | 
O=C(NCc1ccccn1)c1ccc(NC(=O)c2ccco2)cc1 | 7.42% | 2.59 µM [rising, full curve, poor fit] | 
O=C(Nc1ccc(Oc2cccnc2)cc1)C1CCN(Cc2ccc(F)cc2)CC1 | 24.1% |  | 
COC(=O)C1CCN(CC(=O)NC(=O)NC2CCCCC2)CC1 | 11% |  | 
O=C1C2C3C=CC(C3)C2C(=O)N1c1ccncc1 (configuration not stated) | 18% | 4.11 µM [rising, partial curve] | 
O=[N+]([O-])c1cccc(-c2c(-c3ccccc3)ncc3cc(F)ccc23)c1 | -17.7% |  | 
CC1CC(C)CN(C(=O)c2cccc(S(=O)(=O)N3c4ccccc4CC3C)c2)C1 (configuration not stated) | 66.5% |  | 11.6 µM [rising, partial curve]
Cc1nc2ccccc2nc1N1CCC(C)CC1 |  | 0.651 µM [falling, full curve] | 1.03 µM [falling, full curve, poor fit]
COc1ccc(-c2csc3nc[nH]c(=O)c23)cc1 | 45.1% |  | 16.4 µM [rising, single point]
Nc1ccc(C(=O)N/N=C/c2cccc(Oc3ccccc3)c2)cc1 | -22.4% |  | 
Cn1c(=O)oc2cc(S(=O)(=O)NCCC(=O)NCCc3ccccc3)ccc21 | -37.7% |  | 
CC(=O)N1CCN=C1SCc1cccc(C)c1 | 1.18% |  | 
CCOc1ccc(-n2c(Cc3cc(=O)[nH]c(=O)[nH]3)nnc2SCC(=O)OC)cc1 | 13.8% |  | 
c1ccc2c(c1)CCCc1cc(NCCN3CCOCC3)nnc1-2 | 21.5% | 29.1 µM [rising, single point] | 
COCCN(Cc1cccs1)S(=O)(=O)c1csc(C(N)=O)c1 | -35.2% |  | 29.1 µM [falling, single point]
